About 3,700 (7%) of roughly 53,000 sequences were called active.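 Rule for the calls: active = gene knockdowns whose robust z-score for IL-1 alpha signal is at least 2 or at most -2, so actives lie on both sides; inactive = the rest.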 Some of the results follow.

The nature of the assay: Components of the Cytosolic LPS Sensing Pathway: Gene Identification via Genome-wide siRNA Screen.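 Note: robust z of the log signal after scaling to non-targeting control siRNA wells of the plate.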 The settings on record: RAW264.7 macrophages, IL-1a HTRF, actives lie on both sides, screened at 100 nM (by protocol), cells primed 5 h with Pam3CSK4 first. In short, it runs like this:
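RAW264.7; siRNA 100 nM final, RNAiMAX, 48h 37 degrees C; Pam3CSK4 5 h; LipidA + TransIT-TKO 24 h; IL-1a HTRF; CellTiter-Glo viability; robust z vs negative-control median.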
(In TR-FRET formats the signal depends on donor and acceptor labels being close together.)
As to GGAGAAAGGCCUUUUCUACTT against Olfr535, the z-score is inactive: 1.18.
Next, GGAAGUUUGGUGGUCCAGUTT against Haus8: inactive: -1.7; GGAUCUAUGAAGCAAAAAATT against Rasa2: inactive: -1.41.
Next, GGCCAUUAGAAGCAAGAUUTT against Akr1c14: inactive: 0.331.
Take GCGAAUUGACAACUCCCUCTT against Slc25a39: the z-score is inactive: -0.605.
Next, GGACAUUGGAUUCUUCAUCTT against Grap2: inactive: 1.16; GGCGGAUCAAACUCGGAUUTT against Pou3f2: inactive: 0.737; GGGAUCCGUAAAGAAGAAATT against Dnaaf1: inactive: 0.683.
Under GGAUAGCUCUAUUAUCUCUTT against Serpinb3a stands inactive: 1.24.
Under GCCAGGAAUCACAAGAGCUTT against Mtg1 stands inactive: 0.571; under CCAUUGUGCAUUAAACAUUTT against Mrpl35, inactive: 0.847.
As to “GGAACUGGCAAGUUAGUUUTT against 3010003L21Rik”, the z-score was inactive: 1.31.
Under GUUCACCGACAAGAGCUGCTT against Ccl26 stands inactive: 0.139.
Under GGUGAACCUCAAUAAUAUCTT against Tmod4 stands inactive: 0.274.
Under GGUAGCAUUAUUUGUCCUATT against Pcdh15 stands inactive: 0.675; under GGAGAACCAGAUCCUGAUCTT against Mypop, inactive: 0.511.
Turning to UAGAAUCCAUGCAAGGGCGTT against Prss41, the z-score is inactive: 1.18.
Under GCUCCUCUCCAAGGUCAUUTT against Olfr96 stands inactive: 0.652.
Next, CCGUAGUUAUGAUACCAAUTT against Cyp3a25: inactive: 0.511; GGAGAAUGUACAAAGGCUUTT against Slc7a13: inactive: 0.369; CCCUGUACCUAGCUCAAGATT against Ecel1: inactive: -0.693.
Next, GCUAGAUCUUUCAUCCAACTT against Lrtm1: inactive: 1.2; GCAACAACCACCAAAUCUATT against Prol1: inactive: -1.53; CCCUGGUCAAUCUUUUCCGTT against Tmem39a: inactive: -0.0939.
As for GGCACCCAUUCCUAAAAUGTT against Hmgn5, the z-score was inactive: -0.929.
Under CCAAUUACGGAGAUUGGAATT against Tspan6 stands inactive: -0.803; under GGCGAUUCAAGGAGUUCCUTT against Mcm5, inactive: 0.939; under GGAUGAUGUCAGCACUUUUTT against Taf8, inactive: -0.508.
Under GGCCUCCAAUAAAGCUCAGTT against Ttc28 stands active: -2.07.
GGCUCUCAGUGCCAUCAUUTT against Stk40: the z-score was inactive: -0.858.
Next, GGGAUAAACCUUCGCCAUATT against Fkrp: inactive: 0.748.
Next, GCCUAAUUAUAGUCACUCUTT against Olfr1089: inactive: 0.15.
Under GGUCUGUGGAUUUAAACUUTT against Sestd1 stands inactive: 0.931; under GCGUGUUACCAUAAAACUUTT against Rubcn, inactive: 0.56.
On to CCAGCCAACGAGAACUUUUTT against Szt2, for which the z-score is inactive: 0.325.
Under GGACCAGAAAAUUCACUUUTT against Gdap2 stands inactive: 0.761; under GGGUCCCGAUCCAUAAUUGTT against Itpka, inactive: 0.0326; under GGCUGUGGAAUGACACCAATT against Sars2, inactive: -1.01.
Next, GGCAAAAUGCAUAGAGAUATT against Map4k5: inactive: -0.884; CGAAGUGGUUACAGAAUCUTT against A2ml1: inactive: 0.611; CCGCUCUUUUACAGCUGGATT against Rsl1d1: inactive: 1.99.
Under GGAUCCAAAGAGUAUUGGATT against Olfr521 stands inactive: 0.345.
With GGUGAUGCAGCAGAUCAUUTT against Nfyc, the z-score is inactive: 0.0427.
Under GGUCUCUUUCAACAAAAAUTT against Sec22a stands inactive: -1.81; under GGCAGUCUCAGGUUAUCUCTT against Zfp445, inactive: 0.406; under GGACCAUCUCUUAUGUCCATT against Olfr54, inactive: 0.85.
Next, GGAAAUCAGCAAAGUAAAATT against Golga1: inactive: -1.1; GGUGGCCUUUCUUUGUUUATT against BC049762: inactive: 0.821.
With GGUUUGCCACCUGUGUGUUTT against Rasgef1b, the z-score is inactive: -0.209.
Next, GCCUAUCGAGGAGACACAUTT against Edil3: inactive: -0.178.
Under GCGUGAGAGAUACCGCCAUTT against Gnai2 stands inactive: -0.847; under GGGAGAGGCACAAAGCAUATT against Ubxn10, inactive: -0.32; under GCCUUUGUAGGUUCAAGUGTT against Zfp932, inactive: 1.31.
Under CGUCAACUCCGACAUCUACTT against Tcerg1 stands inactive: -0.631; under GGAAAAGGUUUUCUACAACTT against Ephx1, inactive: -1.11; under GGUGGCACAUAAGAAAUCCTT against Trim66, inactive: -1.61.
Turning to GACCCGCUGCUGCUCAAAUTT against Cdc42ep5, the z-score is inactive: -0.178.
Next, GCUCAGAAUAUCACAUCAATT against Ppm1b: inactive: -1.59; GGUGAUACUAACAGCGGAGTT against Sort1: inactive: 0.359.
Next, CUCAAAAUCUGGUGAUAAATT against Adam34: active: 2.66; GGACGACAGUGCAAAGCAUTT against Usb1: active: -2.33.
Next, GGUCCCAGGUACAACAAAATT against Vmn1r73: inactive: 0.165; GGCCUAUUCACAGGUGUGATT against Tspear: inactive: -0.253.
Regarding GCCUUUUCUACCUACACAATT against Paqr4, the z-score is inactive: 0.865.
On to GCUUGGUGGAAAUUUCUUGTT against Rwdd2b, for which the z-score was inactive: 0.355.
Next, GGAUUCUAUGAGAAAGUUCTT against Abca7: inactive: -0.00468.
With GCCGCCUAAUGUUGACUUUTT against Usp37, the z-score was inactive: -0.281.
Next, GGCAAAUUUUUGGAGAUGUTT against Hspa4: inactive: 0.931; GGACUUGUAUUAGCAGGAATT against Pparg: inactive: 1.93; GGACAGAUUCUCUGUGAAUTT against Cryab: inactive: 0.588.
Next, CCACUACGAAAUCAUUUCCTT against Car9: inactive: -0.153.
As to GCAAUUCCACGUAUGGAUUTT against Olfr652, the z-score is inactive: 0.336.
Next, GGCUGGAGAAUUCUAGAAUTT against Lao1: inactive: 0.666.
With GGACUGACACUAUAAACUCTT against Ndufb2, the z-score is inactive: 1.75.
For CCGCUCUACCACAGCCUUATT against Rnf145, the z-score was inactive: 0.646.
Next, GUGGGAUUCCAGUAGAAAUTT against Olfr1116: inactive: 0.559.
Next, GCUUUUAGGCACCUGUGCUTT against Wfdc21: inactive: -1.26; GGCAAUGAUGAUCUCCUCUTT against Htra3: inactive: 0.434.
Under GGAAGCUUCGAGGAUGAUGTT against Snx33 stands inactive: -0.656; under GGUAGUAUCCCAGUUCCAUTT against Pgap4, inactive: 1.08.
With CCAGAAGUAUAGGACGCACTT against Pxdn, the z-score is inactive: 0.115.
Under GCACUUACUCAUUAAUCACTT against Rnf20 stands active: -2.56; under CCUAAUAGAUGAAUCCAAUTT against Srgn, inactive: 0.773; under GGUAAUAUUUCGUGCUUUATT against Lamb1, active: 2.1.
For GCAGAUGCUAUUUAUGCAGTT against Prpf6, the z-score is inactive: -1.23.
Under GCAAGUACCUAGUGGUGGATT against Tssk2 stands inactive: -0.28.
Under GGAAAGAGUAAGAUUUUGATT against Dnah11 stands inactive: -0.292; under GCUCACCUGAGUCAAUGAUTT against Nr5a2, active: -2.25; under GCUACGCUAUUUUUGGCUUTT against Clec12a, inactive: 0.554.
Next, GCUCUAAACAUGAUUCAAGTT against Akap9: inactive: 1.17; GGGAUAUGUUUCUUGUAGGTT against Vmn1r14: inactive: -1.07; GGUCAGACCUGUUGAUAGATT against Nr3c1: inactive: 0.34.
With GGACCCUGUUCUUUGCUUATT against Srxn1, the z-score was inactive: 0.255.
Under CGGCUACUAUGUGAAACUGTT against Jph1 stands inactive: 0.236; under CCCUUUUUAAUCGUCCCACTT against Nrep, inactive: -0.835; under GGUGAUAAAGUCAUUCCACTT against Adh1, inactive: 0.759.
Under GGAUAAACUUCCAUCUUUCTT against Car14 stands inactive: 0.0577; under UCAAGAAAGGUCAUGUCAGTT against AY702102, inactive: -1.95.
CCGUAAGGAUAUUCUCUAGTT against Pelo: the z-score is inactive: -0.115.
Next, GGAAGAUGAUUCAGAUUUGTT against Adig: inactive: 1.49; GGGUUAUGGAUUUGAAGUGTT against Tmem131l: inactive: 1.3.
Next, GGAAAAAUCAGUUUCGUCUTT against Dgkq: inactive: 0.305; GGCUAAGUACUCAGCAUAGTT against Ctf2: inactive: 0.0269.
Next, CGACUCUGAAGCUAAACAATT against Npr3: inactive: -0.415.
As to CCAGACAUUUGAUAGCCAUTT against Fam241a, the z-score was inactive: -1.42.
Next, GGGUAUGGAUUCCUGUCAGTT against Pcca: inactive: -0.712; CCCGGGAUAGAGAGGAAAUTT against Nbl1: inactive: -0.256.

Source of the values: PubChem BioAssay AID1508600 (Functional Genomics Laboratory (NCATS/FGL), 2020).
